Data as given in PubChem BioAssay AID1159584 (Peter MacCallum Cancer Centre, 2016)
Shown is one part, drawn at random, of about 18,000 reagents tested. No sequences are given here. Not given: the amount of reagent, the time to read-out.

- Test: 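Knock-downs that harm CDH1-null cells more than parental MCF10A cells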 (primary screen)
- System: human MCF10A breast epithelial cells, parental and CDH1-null
- Reagent: siRNA against human genes
- Detection: 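ATP luminescence (CellTiter-Glo) viability per line relative to mean mock wells over all plates, and the ratio of CDH1-null to parental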
- Reading the numbers: CDH1-null / parental viability ratio: higher = CDH1-null cells survive relatively better than parental; CDH1-null viability vs mock: higher = more viable CDH1-null cells; parental viability vs mock: higher = more viable parental cells

no.	Target gene	CDH1-null / parental viability ratio	CDH1-null viability vs mock (fraction of mock)	parental viability vs mock (fraction of mock)
1	SRRM2	1.04	0.82	0.79
2	AIMP1	0.93	0.4	0.43
3	PRPF40B	0.81	0.66	0.81
4	ALG10	1.03	1.01	0.98
5	CA4	1.19	0.86	0.72
6	CABP2	0.98	0.9	0.92
7	CDKL3	1.03	0.99	0.96
8	PDIK1L	1.11	0.9	0.81
9	EHMT1	1.2	0.66	0.55
10	AKAP17A	1	0.76	0.76
11	PRSS3	1.16	0.96	0.83
12	PDE1B	0.97	0.6	0.62
13	WDFY1	1.14	0.96	0.84
14	OR2T12	1.47	0.5	0.34
15	TIPE1	1.13	0.68	0.6
16	DCLK2	0.99	0.71	0.72
17	CCL3L1	0.88	0.76	0.86
18	DNAJC6	1	0.53	0.53
19	BCAP31	0.81	0.26	0.32
20	TNNI3K	0.71	0.7	0.98
21	GYS2	0.86	0.38	0.44
22	TSPAN18	1.28	0.64	0.5
23	HMGN5	0.91	0.7	0.77
24	OR2T10	0.94	0.5	0.53
25	CBS	1.09	1.01	0.93
26	SSUH2	0.91	0.86	0.94
27	PLPP7	1.49	0.97	0.65
28	KLHL30	0.89	0.66	0.74
29	NUDT4	1.29	0.8	0.62
30	BYSL	1.15	0.78	0.68
31	ADISSP	0.84	0.77	0.92
32	SERPINB6	0.83	0.52	0.63
33	ANGPTL5	0.88	0.88	1
34	SPINK14	1.43	0.9	0.63
35	KCNIP4	1.17	0.96	0.82
36	LAMA1	1.09	0.82	0.75
37	OR2AE1	0.84	0.81	0.96
38	MRGPRX1	0.73	0.8	1.1
39	ATE1	0.87	1	1.15
40	AAMDC	1.69	0.44	0.26
41	ZNF460	0.9	0.72	0.8
42	NT5C3A	1.44	1.04	0.72
43	MYO7B	1.02	0.88	0.86
44	MMP23B	1.23	0.86	0.7
45	C22orf39	0.87	0.66	0.76
46	UPF1	0.72	0.58	0.8
47	PRMT7	0.83	0.76	0.92
48	ADAMTS8	1.04	0.76	0.73
49	UPF2	0.98	0.86	0.88
50	PGLYRP2	0.91	0.82	0.9
51	RAB7B	1.08	0.84	0.78
52	THEM6	1.02	0.99	0.97
53	TCAF2	0.96	0.5	0.52
54	ABCF3	0.97	0.93	0.96
55	CLEC4M	0.94	0.66	0.7
56	MLEC	1.09	0.5	0.46
57	GPR135	0.98	0.9	0.92
58	LAMB3	0.85	0.46	0.54
59	ENSA	0.86	0.76	0.88
60	TCAIM	1.17	1.08	0.92
61	OR8B2	1.04	0.87	0.84
62	C8orf74	1.23	0.32	0.26
63	PCDHGB5	1.07	0.88	0.82
64	LYZ	0.95	0.79	0.83
65	SLC25A13	1.16	1.02	0.88
66	PAIP1	0.9	0.92	1.02
67	TSSK2	1.07	1.01	0.94
68	TCEAL8	0.84	0.64	0.76
69	MBIP	1.62	0.47	0.29
70	HCLS1	1.06	0.69	0.65
71	KRT1	1.12	1.02	0.91
72	PSME1	0.9	0.63	0.7
73	URGCP	1.12	0.86	0.77
74	H4C15	1.01	0.89	0.88
75	NLRP14	1.01	0.87	0.86
76	CTNNA3	1.14	1.07	0.94
77	RAET1G	1.21	0.41	0.34
78	UBQLN1	1.01	0.92	0.91
79	DHH	1.14	0.8	0.7
80	PROX2	0.94	0.85	0.9
81	BAZ1A	1.15	0.94	0.82
82	H2AC18	0.75	0.64	0.85
83	HSD17B4	0.97	1.01	1.04
84	TBC1D9	0.75	0.47	0.63
85	GDF3	1.05	0.69	0.66
86	TEX29	0.91	0.8	0.88
87	CIPC	1.2	0.9	0.75

8 entries from above, ordered by “parental viability vs mock (fraction of mock)”, descending:
Target gene	CDH1-null / parental viability ratio	CDH1-null viability vs mock (fraction of mock)	parental viability vs mock (fraction of mock)
CTNNA3	1.14	1.07	0.94
UBQLN1	1.01	0.92	0.91
PROX2	0.94	0.85	0.9
H4C15	1.01	0.89	0.88
NLRP14	1.01	0.87	0.86
URGCP	1.12	0.86	0.77
DHH	1.14	0.8	0.7
RAET1G	1.21	0.41	0.34
